In publication PMC12547515 one finds binding data, which are given here for 1 substance.

Chains of the proteins cited; added tags and fusions are not shown.
UniProt Q96DX7: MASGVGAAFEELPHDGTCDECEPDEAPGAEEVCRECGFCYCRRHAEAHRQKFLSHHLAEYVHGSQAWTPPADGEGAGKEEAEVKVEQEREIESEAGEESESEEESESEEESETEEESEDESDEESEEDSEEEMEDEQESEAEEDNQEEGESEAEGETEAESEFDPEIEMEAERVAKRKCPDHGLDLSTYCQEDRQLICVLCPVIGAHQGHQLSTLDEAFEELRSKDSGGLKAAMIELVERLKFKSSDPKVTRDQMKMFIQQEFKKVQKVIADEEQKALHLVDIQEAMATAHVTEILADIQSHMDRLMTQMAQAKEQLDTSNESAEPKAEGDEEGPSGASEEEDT
UniProt P08670: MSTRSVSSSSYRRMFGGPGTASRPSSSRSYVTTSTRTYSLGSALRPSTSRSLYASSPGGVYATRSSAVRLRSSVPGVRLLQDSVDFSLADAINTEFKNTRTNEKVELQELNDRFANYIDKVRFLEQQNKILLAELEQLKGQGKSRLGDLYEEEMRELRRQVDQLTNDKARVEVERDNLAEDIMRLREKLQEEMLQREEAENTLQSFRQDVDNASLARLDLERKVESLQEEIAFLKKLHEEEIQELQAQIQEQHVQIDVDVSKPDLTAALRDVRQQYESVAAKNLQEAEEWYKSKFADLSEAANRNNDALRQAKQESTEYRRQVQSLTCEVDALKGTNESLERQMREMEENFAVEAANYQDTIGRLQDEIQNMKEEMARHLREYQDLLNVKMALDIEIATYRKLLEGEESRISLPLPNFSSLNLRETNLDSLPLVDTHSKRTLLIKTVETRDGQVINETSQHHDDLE

These are yes or no findings as the source states them, for the method shown. In cells and extracts the contact can be indirect. A yes stands for co-enrichment or nearness to the bait. Other partners may have been found.

The target in this test is Tripartite motif-containing 44 (TRIM44), endogenous (human (endogenous in 769-P, Caki-1, OSRC-2, ACHN)) (UniProt Q96DX7). Kind of test: affinity purification with mass spectrometry; lysates of 769-P and Caki-1 cells immunoprecipitated with anti-TRIM44 antibody, SDS-PAGE, Coomassie bands cut out, LC-MS/MS.

Regarding “vimentin, endogenous (from UniProt P08670 1-466)”, the binding result is listed as “binds”.
